According to US11896601B2, “Composition for prevention or treatment of allergic disease including inotodiol compound as active ingredient” (CARBOEXPERT INC., priority 2018, dated 2024):
For at least one compound, name, drawing or mass did not settle the structure.

Experiments:
[1] = system: mast cell protease-1 (MCPT-1); assay: Serum MCPT-1 concentration by ELISA, food allergy mouse model; type: in vivo; details: ovalbumin food allergy BALB/C mice, serum one day after last administration, FIG. 3(B)
Protocol: (§1) For immunization of the mice, 20 μg of ovalbumin was mixed with 2 mg of alum, and the mixture was intraperitoneally injected to the mice two times every two weeks. Food allergy induction was induced by performing the second immunization injection and two weeks thereafter, 50 mg of ovalbumin was orally administered thereto five times every three days to cause an allergic response. […] Here, as a positive control, a mice group was used to which dexamethasone was administered every day. 50 mg of ovalbumin alone or the chaga mushroom extract, the fraction, or the inotodiol compound was lastly administered thereto, followed by observation on symptoms caused by allergy one hour thereafter.

[2] = system: food allergy-induced mouse model; assay: Stool observation (diarrhea score) in ovalbumin food allergy mouse model; type: in vivo; details: ovalbumin food allergy BALB/C mice; oral daily; inotodiol, dexamethasone, cholesterol 20 mg/kg; extract and fractions 320 mg/kg; score 0-4 (Table 4); FIG. 1(C)
Protocol: (§2) To prepare allergy mouse models, 5-week-old male BALB/C mice were used. Food allergy models were prepared using ovalbumin of chicken as an allergy-inducing material (allergen).
as §1

[3] = system: food allergy-induced mouse model; assay: Rectal temperature in ovalbumin food allergy mouse model; type: in vivo; details: ovalbumin food allergy BALB/C mice; oral daily; inotodiol, dexamethasone, cholesterol 20 mg/kg; extract and fractions 320 mg/kg; one hour after last administration; FIG. 1(A)
[4] = system: egg white protein-specific IgE; assay: Serum IgE concentration by ELISA, food allergy mouse model; type: in vivo; details: ovalbumin food allergy BALB/C mice, serum one day after last administration, FIG. 3(A)
Protocol: as §1

[5] = system: mast cell degranulation (MCPT-1); assay: Passive systemic anaphylaxis: MCPT-1 in blood; type: in vivo, mouse; details: passive systemic anaphylaxis (anti-DNP-IgE, DNP-BSA i.v.); oral once a day for 3 days; inotodiol 20, ethanol extract 320, cholesterol 20, dexamethasone 10, imatinib 20 mg/kg; FIG. 5(B)
Protocol: On the third day after oral administration, 3 μg of anti-dinitrophenol (DNP)-IgE was intravenously injected, and after 24 hours, mast cell degranulation was induced by intravenous injection of 80 μg of DNP-conjugated bovine serum albumin (BSA). The rectal temperature of mice induced mast cell degranulation was measured, and the amount of MCPT-1 in the blood was analyzed.

[6] = system: food allergy-induced mouse model; assay: Anaphylaxis symptom score in ovalbumin food allergy mouse model; type: in vivo; details: ovalbumin food allergy BALB/C mice; oral daily; inotodiol, dexamethasone, cholesterol 20 mg/kg; extract and fractions 320 mg/kg; score 0-4 (Table 3); FIG. 1(B)
Protocol: as §2, §1

[7] = system: eosinophils in small intestine; assay: Eosinophil infiltration in small intestine (H&E staining), food allergy mouse model; type: in vivo; details: ovalbumin food allergy BALB/C mice; H&E stained small intestine sections; FIG. 2(A)
Protocol: as §2, §1
The mice of each experimental group in Experimental Example 1 were anesthetized and cut the abdomen. Then, the small intestine was removed, fixed with formalin, treated with paraffin, permeated with paraffin, and microsectioned using microtome, thereby obtaining tissue sections. The obtained small intestine sections were stained with hematoxylin and eosin (H&E) to observe eosinophil cells.

[8] = system: mast cells in small intestine; assay: Number of mast cells in small intestine (toluidine staining), food allergy mouse model; type: in vivo; details: ovalbumin food allergy BALB/C mice; toluidine stained small intestine sections; FIG. 2(B)
Protocol: as §2, §1

C[C@@H]1C[C@H]2[C@@H]3CCC4=CC(=O)C=C[C@]4(C)[C@@]3(F)[C@@H](O)C[C@]2(C)[C@@]1(O)C(=O)CO [Dexa., dexamethasone]
concentration of MCPT-1 in serum [1]: decreased significantly
diarrhea symptom score (stool symptom score) [2]: lower than that of the food allergy-induced group
rectal temperature [3]: higher rectal temperature than the food allergy-induced group
concentration of egg white protein-specific IgE in serum [4]: no substantial change in the concentration of IgE
concentration of MCPT-1 in the blood after induced mast cell degranulation [5]: level of increase in concentration of MCPT-1 was significantly decreased
anaphylaxis score [6]: lower anaphylaxis score than the food allergy-induced group
infiltration of eosinophils in the small intestine (number of stained eosinophil cells) [7]: decreased infiltration of eosinophils
number of mast cells in the small intestine [8]: decreased number of mast cells
